Laboratory results taken from patent US20170173002A1, “Compositions and Methods for Treating an Infection” (CMPD LICENSING, LLC, priority 2015, published 2017).

Test system: Mycoplasma pneumoniae
Experiment: Expected efficacy of antibiotic agents
Conditions: expected efficacy against Mycoplasma pneumoniae

SMILES: O=C(O)c1cn(C2CC2)c2cc(N3CCNCC3)c(F)cc2c1=O [Ciprofloxacin, ciprofloxacin]
- Efficacy: yes
